Assay results taken from publication PMC8456587.

Biological target: GST tagged L-DL (long isoform of hnRNP D-like) (mouse)
Test: pull-down; co-affinity precipitation: GST-L-DL, GST-SC35 or GST control expressed in 293T cells; 500 μg lysate in GST-binding buffer (PBS, 0.1 mM EDTA, 0.1% Triton X-100, pH 7.4) on GST agarose beads overnight at 4 °C; washes with 0.1% SDS, 0.3% deoxycholate, 0.3% NP-40; immunoblot of endogenous partners

Binder | binding
SC35 (splicing component 35 kDa) (protein, UniProt Q01130 1-221) MSYGRPPPDVEGMTSLKVDNLTYRTSPDTLRRVFEKYGRVGDVYIPRDRYTKESRGFAFVRFHDKRDAEDAMDAMDGAVLDGRELRVQMARYGRPPDSHHSRRGPPPRRYGGGGYGRRSRSPRRRRRSRSRSRSRSRSRSRSRYSRSKSRSRTRSRSRSTSKSRSARRSKSKSSSVSRSRSRSRSRSRSRSPPPVSKRESKSRSRSKSPPKSPEEEGAVSS | binds
U2AF35 (U2 auxiliary factor 35 kDa subunit) (protein, UniProt Q01081 1-240) MAEYLASIFGTEKDKVNCSFYFKIGACRHGDRCSRLHNKPTFSQTIALLNIYRNPQNSSQSADGLRCAVSDVEMQEHYDEFFEEVFTEMEEKYGEVEEMNVCDNLGDHLVGNVYVKFRREEDAEKAVIDLNNRWFNGQPIHAELSPVTDFREACCRQYEMGECTRGGFCNFMHLKPISRELRRELYGRRRKKHRSRSRSRERRSRSRDRGRGGGGGGGGGGGGRERDRRRSRDRERSGRF | binds

Results are given in words; binding and its absence hold for the method and conditions named. Binding seen in cells or lysates may run through a third protein. Binding calls can cover weak binding; strength is not graded here.
